Several values for one entry are separate records, joined by “and”; a condition that tells them apart may be missing. Equal entries are not always repeated. Hit rate of the full screen: of about 360,000 compounds, about 7,500 (2.1%) were called active. This list was built around the results that the source calls inconclusive (neither active nor inactive); the mix of calls is not that of the screen. Calls follow the shape of the dose curve; as a rule, active = well fitted inhibition curve with a large enough effect; inconclusive = small, poorly fitted or top-dose-only effect, or effect the other way; inactive = flat fitted curve, though single readings scatter. Potencies beside an inconclusive call are fits to weak or partial responses and may not hold up.
Experiment: Nrf2 qHTS screen for inhibitors; also: nearly all actives have a fitted effect of over 60% in size
Details: A549 ARE-Fluc reporter, luciferase luminescence, 18-24 h; activity change, negative = inhibition: at 46 µM (top of the series)
How it was run: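 A549 ARE_Fluc cells (5000/well, 5% FBS OPTI-MEM) pre-incubated 2 h, then treated with compounds 18-24 h at 37C/5% CO2 in concentration-response. CellTiter-Fluor viability read first; BugLite luciferase luminescence after 15 min at room temperature gives Nrf2 activity.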
% is scaled to controls: 0 for no effect and ±100 for the full control effect; potency is read from the fitted curve at half-maximal effect.

SMILES	activity change, negative = inhibition	Potency
CCN1CCc2c(C#N)c(N3CCCCC3)nc(N3CCOCC3)c2C1	inactive: 8.48%	–
O=C(c1c(F)cccc1Cl)N1CCN(c2ccccn2)CC1	inactive: 28.8%	–
O=C(CCc1nc2ccccc2c(=O)[nH]1)N1CCN(S(=O)(=O)c2ccccc2Br)CC1	–	inconclusive: 2.31 µM [falling, partial curve, poor fit]
CCN(CC)c1nc(N)c2c(N)nc3c(c2c1C#N)CC(c1ccccc1)O3 (centres undefined)	–	inconclusive: 29.1 µM [falling, single point]
O=C(Nc1ncc(Cc2ccccc2)s1)c1cccs1	–	inconclusive: 0.92 µM [activator, full curve, poor fit]
CCOC(=O)CCC(NC(=O)CCCCCCCC(=O)NC(CCC(=O)OCC)C(=O)OCC)C(=O)OCC (centres undefined)	inactive: 8.94%	–
CCOC(=O)c1cnc(-n2nc(C)cc2C)nc1NC1CCCC1	–	inconclusive: 29.1 µM [falling, single point]
COc1ccc2[nH]cc(CCNC(=O)COc3cc(C)cc4oc(=O)cc(C)c34)c2c1	–	inconclusive: 32.6 µM [falling, single point]
COc1ccc(S(=O)(=O)Nc2cccc3c2O[C@H](CN(C)Cc2ccc(Cl)c(Cl)c2)[C@@H](C)CN([C@H](C)CO)C3=O)cc1	–	inconclusive: 23.1 µM [falling, single point]
COc1ccc(-c2nc(N)n(C(=O)c3ccc(C)cc3)n2)cc1	–	active: 10.3 µM
CCc1noc(C)c1C(=O)N1CCSC1=Nc1cccc(Cl)c1C	–	inconclusive: 29.1 µM [falling, single point]
O=C(c1ccccc1)c1nn(-c2ccc(Cl)cc2)c(=O)cc1C(F)(F)F	–	inconclusive: 16.4 µM [falling, partial curve, poor fit]
Cc1ccc(C(=O)NCCSc2c(C)[nH]c3ccccc23)cc1[N+](=O)[O-]	–	inconclusive: 23.1 µM [falling, partial curve, poor fit]
Cc1ccc(C(=O)OCC(=O)c2c[nH]c3ccccc23)cc1S(=O)(=O)N1CCCCC1	–	inconclusive: 23.1 µM [falling, partial curve, poor fit]
O=C(CSc1nc(-c2ccc(F)cc2)[nH]c1-c1ccc(F)cc1)Nc1ccc2c(c1)OCCO2	–	inconclusive: 18.4 µM [falling, single point]
O=C(NNC(=S)Nc1ccc(Cl)cc1)c1ccccc1OC(F)F	–	inconclusive: 16.4 µM [falling, single point]
O=C1OC(C(=O)Nc2cc(C(F)(F)F)ccc2Cl)Cc2ccccc21 (centres undefined)	–	inconclusive: 3.26 µM [falling, full curve, poor fit]
Cc1ccc(C(=O)O/N=C(\N)c2ccccc2)c(Cl)c1	–	inconclusive: 2.31 µM [activator, partial curve]
Cc1ccc(C)c(N2CCN(C(=O)c3cnn(-c4ccccc4Cl)c3C3CCN(C(=O)OC(C)(C)C)CC3)CC2)c1	–	inconclusive: 16.4 µM [falling, single point]
COc1ccc(C2=NOC(C(=O)Nc3ccc4c(c3)OCCO4)C2)c(OC)c1 (centres undefined)	–	inconclusive: 16.4 µM [falling, single point]
COC(=O)N1C(=O)[C@@](c2ccccc2)(C2CCCCC2)N1C(=O)OC	–	inconclusive: 4.61 µM [falling, partial curve]
COC(=O)C1=C(C)Nc2nc(SCc3ccccc3)[nH]c(=O)c2C1c1cccs1 (centres undefined)	–	inconclusive: 13 µM [falling, partial curve, poor fit]

Whole records, quoted from the list. Values in the order: activity change, negative = inhibition	Potency
O=C1OC(C(=O)Nc2cc(C(F)(F)F)ccc2Cl)Cc2ccccc21 (centres undefined) reads –	inconclusive: 3.26 µM [falling, full curve, poor fit]
COc1ccc(-c2nc(N)n(C(=O)c3ccc(C)cc3)n2)cc1 reads –	active: 10.3 µM

(next part)

SMILES	activity change, negative = inhibition	Potency
COc1ccc(C(=O)O/N=C(\N)c2ccccc2)cc1	–	inconclusive: 6.51 µM [activator, partial curve]
Cc1ccc(-c2cc(C(=O)Nc3cc(C(=O)O)ccc3C)c3ccccc3n2)cc1	–	inconclusive: 13 µM [activator, partial curve]
NC(=O)c1ccccc1OCC(=O)N1CCCc2ccccc21	–	inconclusive: 18.4 µM [falling, single point]
COc1ccc2nc(-c3ccccc3)nc(SCC(=O)NCC3CCCO3)c2c1 (centres undefined)	–	inconclusive: 18.4 µM [falling, partial curve, poor fit]
C=C1SC(Nc2c(C)cc(C)cc2C)=NC12CCCCC2	–	inconclusive: 20.6 µM [falling, single point]
COc1cccc(N2CC(O)=C(c3nc4ccccc4s3)C2=N)c1	–	inconclusive: 18.4 µM [activator, partial curve]
c1ccc(N2CCN(c3nnc(Cc4cccnc4)c4ccccc34)CC2)nc1	–	inconclusive: 23.1 µM [falling, single point]
CC(=O)c1ccc(NC(=O)CCNC(=O)c2ccc(Cl)cc2)cc1	inactive: 1.16%	–
Cc1cccc(Cn2nc(C(C)(C)C)cc2C(=O)Nc2ccc(F)cc2)c1	–	inconclusive: 25.9 µM [falling, single point]
CCOC(=O)N1CCC(NS(=O)(=O)c2ccc3c(c2)oc(=O)n3C)CC1	inactive: -16.7%	–
Cc1ccc(NC(=O)CS(=O)CC(=O)NC23CC4CC(CC(C4)C2)C3)cc1 (centres undefined)	–	inconclusive: 2.06 µM [activator, partial curve]
O=C(Nc1ccc2oc(-c3cccnc3)nc2c1)c1ccc2c(c1)OCCO2	–	inconclusive: 16.4 µM [falling, partial curve]
C=C(C)CNC(=S)NNC(=O)c1ccco1	–	inconclusive: 0.058 µM [falling, full curve, poor fit]
COc1ccccc1N1CCN(C(=O)c2cnn(-c3ccc(F)cc3F)c2C2CCNCC2)CC1	inactive: 3.89%	–
COc1cccc(C(=O)Nc2ccc3oc(-c4cccc5c(Br)cccc45)nc3c2)c1	–	inconclusive: 7.31 µM [falling, partial curve]
CS(=O)(=O)N1CCc2cc(-c3csc(NC(=O)Cc4ccccc4)n3)ccc21	–	active: 20.6 µM
Cc1ccc(/C=N/NC(=O)C(NC(=O)c2ccccc2)c2n[nH]c(=O)c3ccccc23)cc1 (centres undefined)	–	inconclusive: 32.6 µM [activator, partial curve, poor fit]
CC(=O)c1ccc(NC(=O)c2cc3ccccc3o2)cc1	–	inconclusive: 1.64 µM [activator, partial curve, poor fit]
CC(=O)Nc1ccc(C=NNC(=O)CCCC(=O)NN=Cc2ccc(NC(C)=O)cc2)cc1	inactive: -8.87%	–
Cc1ccc(NC(=O)c2ccc3c(c2)OCO3)cc1Cl	–	inconclusive: 29.1 µM [activator, partial curve, poor fit]
COc1cccc(NC(=O)C(=O)N2CCOCC2)c1	–	inconclusive: 14.6 µM [activator, partial curve, poor fit]
O=C(c1cccn2c(=O)c3cc(Cl)ccc3nc12)N1CCOCC1	inactive: 6.85%	–

Taken from above.
Value of `COc1ccc2nc(-c3ccccc3)nc(SCC(=O)NCC3CCCO3)c2c1` (centres undefined) under Potency: inconclusive: 18.4 µM [falling, partial curve, poor fit]
Value of `Cc1ccc(NC(=O)c2ccc3c(c2)OCO3)cc1Cl` under Potency: inconclusive: 29.1 µM [activator, partial curve, poor fit]

Additional records:

SMILES	activity change, negative = inhibition	Potency
O=C(Nc1cccc(NC(=O)c2ccco2)c1)c1cccc(Br)c1	–	inconclusive: 20.6 µM [falling, single point]
CCOC(=O)N1CCN(C(=O)C(CC(C)C)NS(=O)(=O)c2ccc(C)cc2)CC1 (centres undefined)	inactive: -11.1%	–
COc1cc(NC(=O)c2ccc([N+](=O)[O-])cc2)ccc1NC(=O)C(C)C	–	inconclusive: 32.6 µM [falling, single point]
C=CCN1C(=O)NC(c2ccccc2)(C(F)(F)F)S/C1=C(\C#N)c1nnc(N2CCOCC2)n1-c1ccccc1 (centres undefined)	–	inconclusive: 11.6 µM [falling, partial curve]
CC(=O)O[C@]1(C(C)=O)CC[C@H]2[C@@H]3C[C@H](C)C4=CC(=O)CC[C@]4(C)[C@H]3CC[C@@]21C	–	active: 184 nM and active: 259 nM
O=C(CSc1ccccn1)N1CCc2ccccc21	–	inconclusive: 9.2 µM [activator, partial curve]
Nc1cc(Cl)ccc1C(=O)OCC(=O)NC1CCCCC1	–	inconclusive: 29.1 µM [activator, single point]
Cc1cc(C)nc(CCNC(=O)c2cc(COc3ccccc3)on2)n1	–	inconclusive: 29.1 µM [activator, single point]
O=C(COc1ccc(Cl)cc1Cl)Nc1cccc2cccnc12	–	inconclusive: 0.326 µM [activator, full curve]
Clc1ccccc1/C=N/Nc1cc(N2CCOCC2)ncn1	–	inconclusive: 18.4 µM [activator, partial curve, poor fit]
CSc1nc(=O)[nH]c2nc[nH]c12	inactive: -0.718%	–
COC(=O)c1ccc(OS(=O)(=O)c2ccc(NC(C)=O)cc2)cc1	–	inconclusive: 2.31 µM [falling, partial curve, poor fit]
Cc1c(C(=O)OC2CCCCCC2)[nH]c2c1C(=O)CC(c1ccc(Cl)cc1)C2 (centres undefined)	–	inconclusive: 0.411 µM [activator, full curve, poor fit]
C/C(=N/Nc1ccnc2cc(Cl)ccc12)c1ccc(N)cc1	inactive: 26.5%	–
COc1ccc2nc(C)cc(SCC(=O)NNC(=O)COc3ccccc3)c2c1	inactive: -16%	–
COc1ccc(Cl)cc1C(=O)NCc1cnn(C)c1C	–	inconclusive: 2.06 µM [falling, partial curve, poor fit]
Cc1cccc(C)c1-n1ncc(C(=O)NC2CCCC2)c1C1CCN(C(=O)OC(C)(C)C)CC1	–	inconclusive: 2.06 µM [activator, partial curve, poor fit]
O=C(Nc1cccc(-c2cn3ccccc3n2)c1)c1cccc(Cl)c1	–	inconclusive: 20.6 µM [falling, single point]
Cc1ccsc1C(=O)OCC(=O)Nc1cccc(S(=O)(=O)NC2=NCCCCC2)c1	–	inconclusive: 32.6 µM [falling, single point]
CC(C)Sc1nc2ccsc2c(=O)[nH]1	–	inconclusive: 16.4 µM [falling, single point]

— PubChem BioAssay AID504444 (National Center for Advancing Translational Sciences (NCATS), 2011)
